Source: US20160159861A1 (priority 2013, published 2016)
For some of these results: End groups of sequences in plain letters are not given here.

How the values were obtained:
[1] = general procedure: Fmoc solid-phase peptide synthesis; Rink amide resin (NovaSyn TGR resin preferred for Intavis); HOBT, HBTU, HCTU; settings: whole synthesis, Method A, scale of the general procedure 5 μmol
[2] = general procedure: Fmoc solid-phase peptide synthesis; Rink amide resin; HOBT, HBTU, HCTU; settings: whole synthesis, scale 5 μmol

Substance	final purity (method not given) [1] [%]	other results
DVFNSSEkRRSADNFI	87	
DVFRSSEkRRSADNFI	82	
DVHRSSEkRRSADIFI	88	
PEkRRSADIFP	93.4	
PK(PkRRSADIFP)RRSADIFP	97	
PTVFRSPSEkRRSADIFI	84.9	
Pal-DVFQSEkRRSADQFI-amide		isolated mass [2]: 2.7 mg; final purity (method not given) ([1]; run 1): 80.7%; final purity (method not given) ([1]; run 2): 71%
Pal-DVFQSSEkRRSADQFI-amide		isolated mass [2]: 3 mg; final purity (method not given) ([1]; run 1): 83.2%; final purity (method not given) ([1]; run 2): 72%
Pal-DVFRSSEkRRSADQFI-amide		isolated mass [2]: 3.8 mg; final purity (method not given) ([1]; run 1): 83.8%; final purity (method not given) ([1]; run 2): 70%
Pal-DVHRSSEkRRSADQFI-amide		isolated mass [2]: 2 mg; final purity (method not given) ([1]; run 1): 70%; final purity (method not given) ([1]; run 2): 96%
Pal-PkRRSADIFIP-amide		isolated mass [2]: 2 mg; final purity (method not given) ([1]; run 1): 70.5%; final purity (method not given) ([1]; run 2): 71%
Pal-TVFQSSEkRRSADFI-amide	70	isolated mass [2]: 2 mg
Pal-TVFRSSE(d-Orn)RRSADIFI-amide		isolated mass [2]: 2.2 mg; final purity (method not given) ([1]; run 1): 92.4%; final purity (method not given) ([1]; run 2): 92%
TPVFRSSPEkRRSADIFI	82	
TVD(N-Me-Arg)SSEkRRSADIFI	71	
TVDRSSEkRRSAD(p-CH2NH2-Phe)FI	92	
TVDRSSEkRRSAD(p-fluoro-Phe)FI	78	
TVDRSSKEkRRSADIFI	70	

Substance	final purity (method not given) [1] [%]	other results
TVDRSSQEkRRSADIFI	85.4	
TVDRSSREkRRESADIFI	80	
TVF(N-Me-Arg)SSEkRRSADIFI	70	
TVFQSEkRRSADFI	77	
TVFRSEkRRSADQFI	70	
TVFRSPSEkRRPSADIF	84	
TVFRSSEPkRRSADIFI	77	
TVFRSSEPkRRSADIFP	75	
TVFRSSEaRRSADIFI	89	
TVFRSSEkRRPSADIFP	75	
TVFRSSEkRRSAD(Bip)FI	94	
TVFRSSEkRRSADNFI	84	
TVFRSSPEkRRSADIFI	82	
TVFRSSPEkRRSADIFP	89	
TVFRSSPEkRRSPADIF	84	
TVKRSSEkRRSADIFI	72	
TVPFRSSEPkRRSADIFI	74	
pTVFRSpSEkRRSADIF	88	
